Results from article PMC10047773.
These are yes or no findings as the source states them, for the method shown. In cells and extracts the contact can be indirect. These calls come from enrichment with a bait or labelling near it, and not all partners need be listed.

Protein sequences, listed by entry. Tags and fused reporters are not part of them. Residues count along the entry.
UniProt P02686, residues 134-304: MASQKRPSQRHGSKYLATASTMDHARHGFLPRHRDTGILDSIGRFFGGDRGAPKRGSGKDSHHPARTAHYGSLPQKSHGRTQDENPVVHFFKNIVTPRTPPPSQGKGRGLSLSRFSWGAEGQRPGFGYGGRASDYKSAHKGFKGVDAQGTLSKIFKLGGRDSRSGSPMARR
UniProt O00161: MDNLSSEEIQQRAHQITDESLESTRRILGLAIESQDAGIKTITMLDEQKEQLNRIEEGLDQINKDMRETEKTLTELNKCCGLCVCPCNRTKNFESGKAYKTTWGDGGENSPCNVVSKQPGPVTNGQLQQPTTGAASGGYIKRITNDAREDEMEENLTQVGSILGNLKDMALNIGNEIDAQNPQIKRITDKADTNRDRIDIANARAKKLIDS
UniProt P26038: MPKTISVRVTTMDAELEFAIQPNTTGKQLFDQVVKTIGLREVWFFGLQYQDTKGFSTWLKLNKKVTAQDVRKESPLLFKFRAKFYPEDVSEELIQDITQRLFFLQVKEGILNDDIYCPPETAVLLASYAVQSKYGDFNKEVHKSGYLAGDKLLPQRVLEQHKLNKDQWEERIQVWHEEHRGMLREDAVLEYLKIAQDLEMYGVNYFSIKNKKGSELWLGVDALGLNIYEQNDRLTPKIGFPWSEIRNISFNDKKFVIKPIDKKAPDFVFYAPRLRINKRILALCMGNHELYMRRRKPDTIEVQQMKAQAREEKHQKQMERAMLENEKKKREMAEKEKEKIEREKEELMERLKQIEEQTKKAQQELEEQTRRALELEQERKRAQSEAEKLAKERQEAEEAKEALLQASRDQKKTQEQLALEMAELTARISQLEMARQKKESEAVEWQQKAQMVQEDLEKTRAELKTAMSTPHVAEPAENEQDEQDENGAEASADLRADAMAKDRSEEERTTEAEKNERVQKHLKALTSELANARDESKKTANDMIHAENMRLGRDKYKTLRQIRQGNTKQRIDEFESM
UniProt Q14204: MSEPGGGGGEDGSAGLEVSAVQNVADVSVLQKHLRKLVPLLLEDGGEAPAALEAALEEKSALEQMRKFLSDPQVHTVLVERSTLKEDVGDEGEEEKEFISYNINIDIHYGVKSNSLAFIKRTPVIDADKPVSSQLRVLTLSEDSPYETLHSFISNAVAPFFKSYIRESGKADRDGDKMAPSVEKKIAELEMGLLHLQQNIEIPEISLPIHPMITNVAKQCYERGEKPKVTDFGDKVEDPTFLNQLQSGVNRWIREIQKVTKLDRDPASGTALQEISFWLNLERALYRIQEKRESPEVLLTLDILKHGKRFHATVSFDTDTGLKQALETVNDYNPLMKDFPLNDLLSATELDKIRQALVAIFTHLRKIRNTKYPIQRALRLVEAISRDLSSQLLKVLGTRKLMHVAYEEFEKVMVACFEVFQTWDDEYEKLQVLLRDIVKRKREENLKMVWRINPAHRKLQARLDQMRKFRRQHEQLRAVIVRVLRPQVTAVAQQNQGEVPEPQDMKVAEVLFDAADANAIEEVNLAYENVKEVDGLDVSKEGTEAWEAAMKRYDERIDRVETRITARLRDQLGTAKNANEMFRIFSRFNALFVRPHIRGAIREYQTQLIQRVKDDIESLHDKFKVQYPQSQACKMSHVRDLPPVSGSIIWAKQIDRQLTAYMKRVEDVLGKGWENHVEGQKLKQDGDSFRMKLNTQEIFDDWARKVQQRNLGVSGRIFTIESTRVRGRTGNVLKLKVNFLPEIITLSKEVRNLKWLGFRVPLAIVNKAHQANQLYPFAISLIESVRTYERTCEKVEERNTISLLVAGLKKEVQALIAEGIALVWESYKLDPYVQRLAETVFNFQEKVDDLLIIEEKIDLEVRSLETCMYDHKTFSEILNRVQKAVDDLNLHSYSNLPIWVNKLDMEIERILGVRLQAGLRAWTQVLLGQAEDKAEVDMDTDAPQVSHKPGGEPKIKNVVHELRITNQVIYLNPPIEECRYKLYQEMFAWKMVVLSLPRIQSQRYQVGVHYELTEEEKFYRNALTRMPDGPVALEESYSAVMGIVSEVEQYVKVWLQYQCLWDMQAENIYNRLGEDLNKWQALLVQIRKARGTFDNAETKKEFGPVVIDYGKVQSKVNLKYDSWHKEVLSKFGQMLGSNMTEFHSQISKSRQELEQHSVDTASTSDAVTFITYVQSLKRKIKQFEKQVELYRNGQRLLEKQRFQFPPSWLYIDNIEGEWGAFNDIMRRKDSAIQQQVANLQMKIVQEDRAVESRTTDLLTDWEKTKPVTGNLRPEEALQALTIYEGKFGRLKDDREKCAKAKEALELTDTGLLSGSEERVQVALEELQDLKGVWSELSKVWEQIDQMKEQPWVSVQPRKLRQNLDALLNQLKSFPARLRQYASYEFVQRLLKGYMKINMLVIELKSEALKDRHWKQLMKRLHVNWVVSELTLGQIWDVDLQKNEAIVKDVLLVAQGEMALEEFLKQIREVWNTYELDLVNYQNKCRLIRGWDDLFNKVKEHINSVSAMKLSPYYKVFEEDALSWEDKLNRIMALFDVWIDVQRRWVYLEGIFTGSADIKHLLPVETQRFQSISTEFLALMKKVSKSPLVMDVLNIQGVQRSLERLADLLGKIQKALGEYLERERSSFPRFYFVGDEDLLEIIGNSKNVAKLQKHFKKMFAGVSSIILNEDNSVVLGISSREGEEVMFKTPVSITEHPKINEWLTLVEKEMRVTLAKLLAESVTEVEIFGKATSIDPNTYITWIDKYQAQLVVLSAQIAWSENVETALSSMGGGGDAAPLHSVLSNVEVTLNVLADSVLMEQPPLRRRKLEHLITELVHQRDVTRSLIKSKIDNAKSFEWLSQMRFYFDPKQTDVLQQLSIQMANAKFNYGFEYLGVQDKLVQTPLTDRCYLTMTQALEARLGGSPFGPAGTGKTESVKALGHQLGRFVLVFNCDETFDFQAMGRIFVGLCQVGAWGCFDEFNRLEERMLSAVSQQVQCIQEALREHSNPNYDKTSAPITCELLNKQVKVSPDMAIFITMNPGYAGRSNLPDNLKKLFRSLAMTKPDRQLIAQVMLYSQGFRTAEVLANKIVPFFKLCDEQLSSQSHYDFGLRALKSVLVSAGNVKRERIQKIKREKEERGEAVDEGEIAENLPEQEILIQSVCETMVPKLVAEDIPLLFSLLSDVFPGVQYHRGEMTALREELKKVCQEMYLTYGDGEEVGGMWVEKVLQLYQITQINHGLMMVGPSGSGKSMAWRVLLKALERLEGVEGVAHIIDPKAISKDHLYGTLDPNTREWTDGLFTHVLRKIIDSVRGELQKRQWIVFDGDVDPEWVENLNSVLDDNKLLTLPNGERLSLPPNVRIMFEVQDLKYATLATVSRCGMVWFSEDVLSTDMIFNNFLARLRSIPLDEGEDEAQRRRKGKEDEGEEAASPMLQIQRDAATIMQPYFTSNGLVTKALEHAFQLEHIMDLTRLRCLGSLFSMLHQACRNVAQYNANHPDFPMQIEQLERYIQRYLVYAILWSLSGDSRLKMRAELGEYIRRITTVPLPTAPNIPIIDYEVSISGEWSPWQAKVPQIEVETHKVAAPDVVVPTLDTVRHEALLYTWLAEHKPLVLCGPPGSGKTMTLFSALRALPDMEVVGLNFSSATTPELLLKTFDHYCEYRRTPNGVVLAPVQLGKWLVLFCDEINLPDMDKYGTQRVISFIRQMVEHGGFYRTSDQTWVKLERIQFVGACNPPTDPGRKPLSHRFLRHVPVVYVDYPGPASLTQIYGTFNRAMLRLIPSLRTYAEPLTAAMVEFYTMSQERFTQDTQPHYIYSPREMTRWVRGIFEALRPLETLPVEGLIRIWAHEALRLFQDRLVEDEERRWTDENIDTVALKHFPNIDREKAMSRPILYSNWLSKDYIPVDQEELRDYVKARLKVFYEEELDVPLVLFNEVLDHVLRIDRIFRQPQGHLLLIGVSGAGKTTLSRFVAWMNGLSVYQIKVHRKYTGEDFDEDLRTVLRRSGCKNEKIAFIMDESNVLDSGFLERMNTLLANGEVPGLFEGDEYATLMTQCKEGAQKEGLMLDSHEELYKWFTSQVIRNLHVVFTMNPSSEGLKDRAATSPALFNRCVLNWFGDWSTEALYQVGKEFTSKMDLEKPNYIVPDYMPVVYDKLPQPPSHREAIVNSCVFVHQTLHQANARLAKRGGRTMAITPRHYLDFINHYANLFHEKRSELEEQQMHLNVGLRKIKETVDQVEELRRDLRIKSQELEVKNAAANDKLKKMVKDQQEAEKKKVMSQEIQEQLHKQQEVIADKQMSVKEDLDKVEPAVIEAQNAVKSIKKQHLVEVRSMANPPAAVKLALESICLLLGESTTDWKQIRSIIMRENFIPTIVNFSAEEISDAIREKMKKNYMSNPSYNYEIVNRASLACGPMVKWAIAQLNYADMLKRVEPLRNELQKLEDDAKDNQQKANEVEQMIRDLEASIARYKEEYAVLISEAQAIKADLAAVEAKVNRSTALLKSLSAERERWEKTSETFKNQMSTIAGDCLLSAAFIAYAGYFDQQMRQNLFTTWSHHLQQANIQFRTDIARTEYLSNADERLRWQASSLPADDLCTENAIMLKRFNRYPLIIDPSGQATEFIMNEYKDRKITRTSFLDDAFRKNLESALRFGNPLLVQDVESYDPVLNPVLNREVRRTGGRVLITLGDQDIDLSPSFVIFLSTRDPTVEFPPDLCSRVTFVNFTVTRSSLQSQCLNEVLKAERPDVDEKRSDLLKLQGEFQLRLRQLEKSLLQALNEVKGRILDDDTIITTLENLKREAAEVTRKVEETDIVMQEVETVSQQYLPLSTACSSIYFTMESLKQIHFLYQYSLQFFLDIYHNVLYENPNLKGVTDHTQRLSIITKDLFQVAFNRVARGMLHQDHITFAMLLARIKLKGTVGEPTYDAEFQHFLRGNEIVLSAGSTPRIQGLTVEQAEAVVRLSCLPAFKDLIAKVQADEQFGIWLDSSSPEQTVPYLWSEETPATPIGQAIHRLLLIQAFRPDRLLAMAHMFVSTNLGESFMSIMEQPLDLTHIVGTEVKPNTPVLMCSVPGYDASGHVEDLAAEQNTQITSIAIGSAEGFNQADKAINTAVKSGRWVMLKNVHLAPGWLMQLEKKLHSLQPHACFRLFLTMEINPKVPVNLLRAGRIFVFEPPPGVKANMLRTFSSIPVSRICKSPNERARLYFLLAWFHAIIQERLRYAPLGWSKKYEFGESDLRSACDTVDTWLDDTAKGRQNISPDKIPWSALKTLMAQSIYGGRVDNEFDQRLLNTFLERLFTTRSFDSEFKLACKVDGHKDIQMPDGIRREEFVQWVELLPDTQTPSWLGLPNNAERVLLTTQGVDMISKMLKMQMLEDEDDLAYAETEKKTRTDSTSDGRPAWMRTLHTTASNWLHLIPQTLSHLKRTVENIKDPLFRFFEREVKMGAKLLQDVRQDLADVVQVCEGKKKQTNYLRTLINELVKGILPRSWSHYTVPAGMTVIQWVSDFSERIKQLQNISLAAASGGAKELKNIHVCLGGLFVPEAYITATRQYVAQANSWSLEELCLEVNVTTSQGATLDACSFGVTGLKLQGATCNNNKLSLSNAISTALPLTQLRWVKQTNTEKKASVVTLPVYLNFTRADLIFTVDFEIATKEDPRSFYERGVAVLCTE

B1: Myelin protein zero-like protein 1 (protein, UniProt O95297 36-269)
chain: SALEVYTPKEIFVANGTQGKLTCKFKSTSTTGGLTSVSWSFQPEGADTTVSFFHYSQGQVYLGNYPPFKDRISWAGDLDKKDASINIENMQFIHNGTYICDVKNPPDIVVQPGHIRLYVVEKENLPVFPVWVVVGIVTAVVLGLTLLISMILAVLYRRKNSKRDYTGCSTSESLSPVKQAPRKSPSDTEGLVKSLPSGSHQGPVIYAQLDHSGGHHSDKINKSESVVYADIRKN
B2: Solute carrier family transporter ZIP6 (protein, UniProt Q13433 29-755)
chain: FPQTTEKISPNWESGINVDLAISTRQYHLQQLFYRYGENNSLSVEGFRKLLQNIGIDKIKRIHIHHDHDHHSDHEHHSDHERHSDHEHHSEHEHHSDHDHHSHHNHAASGKNKRKALCPDHDSDSSGKDPRNSQGKGAHRPEHASGRRNVKDSVSASEVTSTVYNTVSEGTHFLETIETPRPGKLFPKDVSSSTPPSVTSKSRVSRLAGRKTNESVSEPRKGFMYSRNTNENPQECFNASKLLTSHGMGIQVPLNATEFNYLCPAIINQIDARSCLIHTSEKKAEIPPKTYSLQIAWVGGFIAISIISFLSLLGVILVPLMNRVFFKFLLSFLVALAVGTLSGDAFLHLLPHSHASHHHSHSHEEPAMEMKRGPLFSHLSSQNIEESAYFDSTWKGLTALGGLYFMFLVEHVLTLIKQFKDKKKKNQKKPENDDDVEIKKQLSKYESQLSTNEEKVDTDDRTEGYLRADSQEPSHFDSQQPAVLEEEEVMIAHAHPQEVYNEYVPRGCKNKCHSHFHDTLGQSDDLIHHHHDYHHILHHHHHQNHHPHSHSQRYSREELKDAGVATLAWMVIMGDGLHNFSDGLAIGAAFTEGLSSGLSTSVAVFCHELPHELGDFAVLLKAGMTVKQAVLYNALSAMLAYLGMATGIFIGHYAENVSMWIFALTAGLFMYVALVDMVPEMLHNDASDHGCSRWGYFFLQNAGMLLGFGIMLLISIFEHKIVFRINF
B3: Syntaxin-binding protein 3 (protein, UniProt O00186 1-592)
chain: MAPPVAERGLKSVVWQKIKATVFDDCKKEGEWKIMLLDEFTTKLLASCCKMTDLLEEGITVVENIYKNREPVRQMKALYFITPTSKSVDCFLHDFASKSENKYKAAYIYFTDFCPDNLFNKIKASCSKSIRRCKEINISFIPHESQVYTLDVPDAFYYCYSPDPGNAKGKDAIMETMADQIVTVCATLDENPGVRYKSKPLDNASKLAQLVEKKLEDYYKIDEKSLIKGKTHSQLLIIDRGFDPVSTVLHELTFQAMAYDLLPIENDTYKYKTDGKEKEAILEEEDDLWVRIRHRHIAVVLEEIPKLMKEISSTKKATEGKTSLSALTQLMKKMPHFRKQITKQVVHLNLAEDCMNKFKLNIEKLCKTEQDLALGTDAEGQKVKDSMRVLLPVLLNKNHDNCDKIRAILLYIFSINGTTEENLDRLIQNVKIENESDMIRNWSYLGVPIVPQSQQGKPLRKDRSAEETFQLSRWTPFIKDIMEDAIDNRLDSKEWPYCSQCPAVWNGSGAVSARQKPRANYLEDRKNGSKLIVFVIGGITYSEVRCAYEVSQAHKSCEVIIGSTHVLTPKKLLDDIKMLNKPKDKVSLIKDE
B4: Sodium-coupled neutral amino acid transporter 1 (protein, UniProt Q9H2H9 1-487)
chain: MMHFKSGLELTELQNMTVPEDDNISNDSNDFTEVENGQINSKFISDRESRRSLTNSHLEKKKCDEYIPGTTSLGMSVFNLSNAIMGSGILGLAFALANTGILLFLVLLTSVTLLSIYSINLLLICSKETGCMVYEKLGEQVFGTTGKFVIFGATSLQNTGAMLSYLFIVKNELPSAIKFLMGKEETFSAWYVDGRVLVVIVTFGIILPLCLLKNLGYLGYTSGFSLSCMVFFLIVVIYKKFQIPCIVPELNSTISANSTNADTCTPKYVTFNSKTVYALPTIAFAFVCHPSVLPIYSELKDRSQKKMQMVSNISFFAMFVMYFLTAIFGYLTFYDNVQSDLLHKYQSKDDILILTVRLAVIVAVILTVPVLFFTVRSSLFELAKKTKFNLCRHTVVTCILLVVINLLVIFIPSMKDIFGVVGVTSANMLIFILPSSLYLKITDQDGDKGTQRIWAALFLGLGVLFSLVSIPLVIYDWACSSSSDEGH
B5: Ephrin-B1 (protein, UniProt P98172 28-346)
chain: LAKNLEPVSWSSLNPKFLSGKGLVIYPKIGDKLDIICPRAEAGRPYEYYKLYLVRPEQAAACSTVLDPNVLVTCNRPEQEIRFTIKFQEFSPNYMGLEFKKHHDYYITSTSNGSLEGLENREGGVCRTRTMKIIMKVGQDPNAVTPEQLTTSRPSKEADNTVKMATQAPGSRGSLGDSDGKHETVNQEEKSGPGASGGSSGDPDGFFNSKVALFAAVGAGCVIFLLIIIFLTVLLLKLRKRHRKHTQQRAAALSLSTLASPKGGSGTAGTEPSDIIIPLRTTENNYCPHYEKVSGDYGHPVYIVQEMPPQSPANIYYKV
B6: NADH-cytochrome b5 reductase 1 (enzyme, UniProt Q9UHQ9 1-305)
chain: MGIQTSPVLLASLGVGLVTLLGLAVGSYLVRRSRRPQVTLLDPNEKYLLRLLDKTTVSHNTKRFRFALPTAHHTLGLPVGKHIYLSTRIDGSLVIRPYTPVTSDEDQGYVDLVIKVYLKGVHPKFPEGGKMSQYLDSLKVGDVVEFRGPSGLLTYTGKGHFNIQPNKKSPPEPRVAKKLGMIAGGTGITPMLQLIRAILKVPEDPTQCFLLFANQTEKDIILREDLEELQARYPNRFKLWFTLDHPPKDWAYSKGFVTADMIREHLPAPGDDVLVLLCGPPPMVQLACHPNLDKLGYSQKMRFTY
B7: Occludin (protein, UniProt Q16625 1-522)
chain: MSSRPLESPPPYRPDEFKPNHYAPSNDIYGGEMHVRPMLSQPAYSFYPEDEILHFYKWTSPPGVIRILSMLIIVMCIAIFACVASTLAWDRGYGTSLLGGSVGYPYGGSGFGSYGSGYGYGYGYGYGYGGYTDPRAAKGFMLAMAAFCFIAALVIFVTSVIRSEMSRTRRYYLSVIIVSAILGIMVFIATIVYIMGVNPTAQSSGSLYGSQIYALCNQFYTPAATGLYVDQYLYHYCVVDPQEAIAIVLGFMIIVAFALIIFFAVKTRRKMDRYDKSNILWDKEHIYDEQPPNVEEWVKNVSAGTQDVPSPPSDYVERVDSPMAYSSNGKVNDKRFYPESSYKSTPVPEVVQELPLTSPVDDFRQPRYSSGGNFETPSKRAPAKGRAGRSKRTEQDHYETDYTTGGESCDELEEDWIREYPPITSDQQRQLYKRNFDTGLQEYKSLQSELDEINKELSRLDKELDDYREESEEYMAAADEYNRLKQVKGSADYKSKKNHCKQLKSKLSHIKKMVGDYDRQKT
B8: TBC1 (Tre2/Bub2/Cdc16) domain family member 10A (protein, UniProt Q9BXI6 1-508)
chain: MAKSNGENGPRAPAAGESLSGTRESLAQGPDAATTDELSSLGSDSEANGFAERRIDKFGFIVGSQGAEGALEEVPLEVLRQRESKWLDMLNNWDKWMAKKHKKIRLRCQKGIPPSLRGRAWQYLSGGKVKLQQNPGKFDELDMSPGDPKWLDVIERDLHRQFPFHEMFVSRGGHGQQDLFRVLKAYTLYRPEEGYCQAQAPIAAVLLMHMPAEQAFWCLVQICEKYLPGYYSEKLEAIQLDGEILFSLLQKVSPVAHKHLSRQKIDPLLYMTEWFMCAFSRTLPWSSVLRVWDMFFCEGVKIIFRVGLVLLKHALGSPEKVKACQGQYETIERLRSLSPKIMQEAFLVQEVVELPVTERQIEREHLIQLRRWQETRGELQCRSPPRLHGAKAILDAEPGPRPALQPSPSIRLPLDAPLPGSKAKPKPPKQAQKEQRKQMKGRGQLEKPPAPNQAMVVAAAGDACPPQHVPPKDSAPKDSAPQDLAPQVSAHHRSQESLTSQESEDTYL
B9: Ganglioside GM2 activator (protein, UniProt P17900 32-193)
chain: SSFSWDNCDEGKDPAVIRSLTLEPDPIIVPGNVTLSVMGSTSVPLSSPLKVDLVLEKEVAGLWIKIPCTDYIGSCTFEHFCDVLDMLIPTGEPCPEPLRTYGLPCHCPFKEGTYSLPKSEFVVPDLELPSWLTTGNYRIESVLSSSGKRLGCIKIAASLKGI

molecular target: Myelin basic protein, classical 18.5 kDa isoform, fused to FLAG-tag and TurboID (MBP_Flag_TurboID) (human) (UniProt P02686); assay: proximity labelling; TurboID fused to the bait in transfected HEK293T cells; 50 uM biotin for 30 min (methods; 15 min in the results); RIPA lysis; streptavidin-agarose; SDS-PAGE, in-gel trypsin, LC-MS/MS; hits in at least two repeats and two or more times over the Flag_TurboID control; triplicates

binding, binds:
Synaptosomal-associated protein 23 (from UniProt O00161 1-211), Moesin (from UniProt P26038 1-577), Cytoplasmic dynein 1 heavy chain 1 (from UniProt Q14204 1-4646), B1, B2, B3, B4, B5, B6, B7, B8, B9
